Results are given in words; binding and its absence hold for the method and conditions named. In cells and extracts the contact can be indirect. Here binding means that the protein was enriched with, or labelled near, the bait; the list need not be complete. For some assays here: A no says only that the protein was not detected with the bait. For some assays here: Where a sequence is shown, tags or fusion partners need not be part of it. One block for each binder: values may come before it.
Columns and labels:
SFB-tagged MAX (human) = SFB-tagged MAX (human) (UniProt P61244); experiment: affinity purification with mass spectrometry; same TAP/MS of SFB-tagged bait from HEK293T; the fraction in which the hit was found is not given
[1] = molecular target: T1, SFB-tagged NFATC1 (human) (UniProt O95644); experiment: affinity purification with mass spectrometry; TAP (streptavidin beads, biotin elution, S-protein beads; NETN buffer) of C-terminally SFB-tagged bait from HEK293T; chromatin fraction (pellet after NETN lysis, digested with TurboNuclease); forward and reciprocal purifications; some baits also after drug treatment
T1 sequence: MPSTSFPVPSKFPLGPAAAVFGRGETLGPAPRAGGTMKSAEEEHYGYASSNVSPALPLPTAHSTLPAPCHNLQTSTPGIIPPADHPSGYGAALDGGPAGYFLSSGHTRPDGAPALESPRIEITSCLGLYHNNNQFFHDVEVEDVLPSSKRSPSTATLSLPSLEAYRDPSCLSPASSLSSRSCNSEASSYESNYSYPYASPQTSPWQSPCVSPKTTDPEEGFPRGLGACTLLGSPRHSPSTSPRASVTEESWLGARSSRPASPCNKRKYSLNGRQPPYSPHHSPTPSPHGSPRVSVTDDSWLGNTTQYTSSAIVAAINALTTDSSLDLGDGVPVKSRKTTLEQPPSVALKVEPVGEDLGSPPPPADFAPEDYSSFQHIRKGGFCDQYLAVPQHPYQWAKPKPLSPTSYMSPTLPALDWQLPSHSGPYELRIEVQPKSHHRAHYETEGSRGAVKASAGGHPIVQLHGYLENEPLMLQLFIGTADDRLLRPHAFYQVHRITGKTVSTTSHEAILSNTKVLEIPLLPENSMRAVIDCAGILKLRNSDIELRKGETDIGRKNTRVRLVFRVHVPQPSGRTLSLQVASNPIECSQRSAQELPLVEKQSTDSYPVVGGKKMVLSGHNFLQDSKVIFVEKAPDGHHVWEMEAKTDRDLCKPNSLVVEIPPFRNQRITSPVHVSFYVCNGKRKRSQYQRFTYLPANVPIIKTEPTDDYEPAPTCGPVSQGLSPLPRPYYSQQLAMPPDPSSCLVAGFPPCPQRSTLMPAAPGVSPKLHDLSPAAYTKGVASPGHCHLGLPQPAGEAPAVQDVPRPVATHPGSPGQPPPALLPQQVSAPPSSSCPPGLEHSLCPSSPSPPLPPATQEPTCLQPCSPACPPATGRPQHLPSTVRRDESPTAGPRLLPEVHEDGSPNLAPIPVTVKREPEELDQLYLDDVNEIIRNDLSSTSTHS

The chains behind the UniProt entries cited, without tags or fusion partners.
UniProt P61244: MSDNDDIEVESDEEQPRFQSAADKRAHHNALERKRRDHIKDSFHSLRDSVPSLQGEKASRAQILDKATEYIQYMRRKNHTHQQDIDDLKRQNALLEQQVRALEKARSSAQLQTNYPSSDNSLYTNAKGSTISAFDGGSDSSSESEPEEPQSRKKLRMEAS
UniProt P05412: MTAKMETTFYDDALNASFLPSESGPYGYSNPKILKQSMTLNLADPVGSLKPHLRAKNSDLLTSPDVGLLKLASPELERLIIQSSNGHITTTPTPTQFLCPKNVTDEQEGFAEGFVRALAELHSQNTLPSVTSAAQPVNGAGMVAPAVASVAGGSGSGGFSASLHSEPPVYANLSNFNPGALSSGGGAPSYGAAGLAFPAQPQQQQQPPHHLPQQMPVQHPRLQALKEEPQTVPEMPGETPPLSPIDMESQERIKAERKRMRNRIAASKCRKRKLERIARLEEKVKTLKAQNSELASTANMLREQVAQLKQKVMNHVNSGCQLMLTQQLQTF

[2] = molecular target: T1, SFB-tagged NFATC1 (human); experiment: affinity purification with mass spectrometry; TAP (streptavidin beads, biotin elution, S-protein beads; NETN buffer) of C-terminally SFB-tagged bait from HEK293T; soluble fraction (supernatant of the NETN lysate); forward and reciprocal purifications
[3] = molecular target: JUN (endogenous) (human (endogenous in HEK293T)) (UniProt P05412); experiment: affinity purification with mass spectrometry; AP/MS with antibodies against endogenous JUN; soluble fraction
[4] = molecular target: JUN (endogenous) (human (endogenous in HEK293T)) (UniProt P05412); experiment: affinity purification with mass spectrometry; AP/MS with antibodies against endogenous JUN; chromatin fraction

- binding (SFB-tagged MAX (human)): binds
B1: SAP130 (endogenous) (protein, UniProt Q9H0E3 1-1048)
chain: MGPPRHPQAGEIEAGGAGGGRRLQVEMSSQQFPRLGAPSTGLSQAPSQIANSGSAGLINPAATVNDESGRDSEVSAREHMSSSSSLQSREEKQEPVVVRPYPQVQMLSTHHAVASATPVAVTAPPAHLTPAVPLSFSEGLMKPPPKPTMPSRPIAPAPPSTLSLPPKVPGQVTVTMESSIPQASAIPVATISGQQGHPSNLHHIMTTNVQMSIIRSNAPGPPLHIGASHLPRGAAAAAVMSSSKVTTVLRPTSQLPNAATAQPAVQHIIHQPIQSRPPVTTSNAIPPAVVATVSATRAQSPVITTTAAHATDSALSRPTLSIQHPPSAAISIQRPAQSRDVTTRITLPSHPALGTPKQQLHTMAQKTIFSTGTPVAAATVAPILATNTIPSATTAGSVSHTQAPTSTIVTMTVPSHSSHATAVTTSNIPVAKVVPQQITHTSPRIQPDYPAERSSLIPISGHRASPNPVAMETRSDNRPSVPVQFQYFLPTYPPSAYPLAAHTYTPITSSVSTIRQYPVSAQAPNSAITAQTGVGVASTVHLNPMQLMTVDASHARHIQGIQPAPISTQGIQPAPIGTPGIQPAPLGTQGIHSATPINTQGLQPAPMGTQQPQPEGKTSAVVLADGATIVANPISNPFSAAPAATTVVQTHSQSASTNAPAQGSSPRPSILRKKPATDGAKPKSEIHVSMATPVTVSMETVSNQNNDQPTIAVPPTAQQPPPTIPTMIAAASPPSQPAVALSTIPGAVPITPPITTIAAAPPPSVTVGGSLSSVLGPPVPEIKVKEEVEPMDIMRPVSAVPPLATNTVSPSLALLANNLSMPTSDLPPGASPRKKPRKQQHVISTEEGDMMETNSTDDEKSTAKSLLVKAEKRKSPPKEYIDEEGVRYVPVRPRPPITLLRHYRNPWKAAYHHFQRYSDVRVKEEKKAMLQEIANQKGVSCRAQGWKVHLCAAQLLQLTNLEHDVYERLTNLQEGIIPKKKAATDDDLHRINELIQGNMQRCKLVMDQISEARDSMLKVLDHKDRVLKLLNKNGTVKKVSKLKRKEKV

- binding [1]: binds
B2: ATF2 (endogenous) (protein, UniProt P15336 1-505)
chain: MKFKLHVNSARQYKDLWNMSDDKPFLCTAPGCGQRFTNEDHLAVHKHKHEMTLKFGPARNDSVIVADQTPTPTRFLKNCEEVGLFNELASPFENEFKKASEDDIKKMPLDLSPLATPIIRSKIEEPSVVETTHQDSPLPHPESTTSDEKEVPLAQTAQPTSAIVRPASLQVPNVLLTSSDSSVIIQQAVPSPTSSTVITQAPSSNRPIVPVPGPFPLLLHLPNGQTMPVAIPASITSSNVHVPAAVPLVRPVTMVPSVPGIPGPSSPQPVQSEAKMRLKAALTQQHPPVTNGDTVKGHGSGLVRTQSEESRPQSLQQPATSTTETPASPAHTTPQTQSTSGRRRRAANEDPDEKRRKFLERNRAAASRCRQKRKVWVQSLEKKAEDLSSLNGQLQSEVTLLRNEVAQLKQLLLAHKDCPVTAMQKKSGYHTADKDDSSEDISVPSSPHTEAIQHSSVSTSNGVSSTSKAEAVATSVLTQMADQSTEPALSQIVMAPSSQSQPSGS
- binding [2]: no binding (only in the soluble fraction)

- binding [3]: binds
- binding [4]: binds
B3: CREB5 (endogenous) (protein, UniProt Q02930 1-508)
chain: MIYEESKMNLEQERPFVCSAPGCSQRFPTEDHLMIHRHKHEMTLKFPSIKTDNMLSDQTPTPTRFLKNCEEVGLFSELDCSLEHEFRKAQEEESSKRNISMHNAVGGAMTGPGTHQLSSARLPNHDTNVVIQQAMPSPQSSSVITQAPSTNRQIGPVPGSLSSLLHLHNRQRQPMPASMPGTLPNPTMPGSSAVLMPMERQMSVNSSIMGMQGPNLSNPCASPQVQPMHSEAKMRLKAALTHHPAAMSNGNMNTMGHMMEMMGSRQDQTPHHHMHSHPHQHQTLPPHHPYPHQHQHPAHHPHPQPHHQQNHPHHHSHSHLHAHPAHHQTSPHPPLHTGNQAQVSPATQQMQPTQTIQPPQPTGGRRRRVVDEDPDERRRKFLERNRAAATRCRQKRKVWVMSLEKKAEELTQTNMQLQNEVSMLKNEVAQLKQLLLTHKDCPITAMQKESQGYLSPESSPPASPVPACSQQQVIQHNTITTSSSVSEVVGSSTLSQLTTHRTDLNPIL

- binding [1]: binds
- binding [3]: binds
- binding [4]: binds
B4: ATF3 (endogenous) (protein, UniProt P18847 1-181)
chain: MMLQHPGQVSASEVSASAIVPCLSPPGSLVFEDFANLTPFVKEELRFAIQNKHLCHRMSSALESVTVSDRPLGVSITKAEVAPEEDERKKRRRERNKIAAAKCRNKKKEKTECLQKESEKLESVNAELKAQIEELKNEKQHLIYMLNLHRPTCIVRAQNGRTPEDERNLFIQQIKEGTLQS
- binding [2]: no binding (only in the soluble fraction)

- binding [1]: binds
- binding [3]: binds
- binding [4]: binds
B5: ATF7 (endogenous) (protein, UniProt P17544 1-483)
chain: MGDDRPFVCNAPGCGQRFTNEDHLAVHKHKHEMTLKFGPARTDSVIIADQTPTPTRFLKNCEEVGLFNELASSFEHEFKKAADEDEKKAAAGPLDMSLPSTPDIKIKEEEPVEVDSSPPDSPASSPCSPPLKEKEVTPKPVLISTPTPTIVRPGSLPLHLGYDPLHPTLPSPTSVITQAPPSNRQMGSPTGSLPLVMHLANGQTMPVLPGPPVQMPSVISLARPVSMVPNIPGIPGPPVNSSGSISPSGHPIPSEAKMRLKATLTHQVSSINGGCGMVVGTASTMVTARPEQSQILIQHPDAPSPAQPQVSPAQPTPSTGGRRRRTVDEDPDERRQRFLERNRAAASRCRQKRKLWVSSLEKKAEELTSQNIQLSNEVTLLRNEVAQLKQLLLAHKDCPVTALQKKTQGYLESPKESSEPTGSPAPVIQHSSATAPSNGLSVRSAAEAVATSVLTQMASQRTELSMPIQSHVIMTPQSQSAGR
- binding [2]: no binding (only in the soluble fraction)

- binding (SFB-tagged MAX (human)): binds
B6: ARID4B (endogenous) (protein, UniProt Q4LE39 1-1312)
chain: MKALDEPPYLTVGTDVSAKYRGAFCEAKIKTAKRLVKVKVTFRHDSSTVEVQDDHIKGPLKVGAIVEVKNLDGAYQEAVINKLTDASWYTVVFDDGDEKTLRRSSLCLKGERHFAESETLDQLPLTNPEHFGTPVIGKKTNRGRRSNHIPEEESSSSSSDEDEDDRKQIDELLGKVVCVDYISLDKKKALWFPALVVCPDCSDEIAVKKDNILVRSFKDGKFTSVPRKDVHEITSDTAPKPDAVLKQAFEQALEFHKSRTIPANWKTELKEDSSSSEAEEEEEEEDDEKEKEDNSSEEEEEIEPFPEERENFLQQLYKFMEDRGTPINKRPVLGYRNLNLFKLFRLVHKLGGFDNIESGAVWKQVYQDLGIPVLNSAAGYNVKCAYKKYLYGFEEYCRSANIEFQMALPEKVVNKQCKECENVKEIKVKEENETEIKEIKMEEERNIIPREEKPIEDEIERKENIKPSLGSKKNLLESIPTHSDQEKEVNIKKPEDNENLDDKDDDTTRVDESLNIKVEAEEEKAKSGDETNKEEDEDDEEAEEEEEEEEEEEDEDDDDNNEEEEFECYPPGMKVQVRYGRGKNQKMYEASIKDSDVEGGEVLYLVHYCGWNVRYDEWIKADKIVRPADKNVPKIKHRKKIKNKLDKEKDKDEKYSPKNCKLRRLSKPPFQTNPSPEMVSKLDLTDAKNSDTAHIKSIEITSILNGLQASESSAEDSEQEDERGAQDMDNNGKEESKIDHLTNNRNDLISKEEQNSSSLLEENKVHADLVISKPVSKSPERLRKDIEVLSEDTDYEEDEVTKKRKDVKKDTTDKSSKPQIKRGKRRYCNTEECLKTGSPGKKEEKAKNKESLCMENSSNSSSDEDEEETKAKMTPTKKYNGLEEKRKSLRTTGFYSGFSEVAEKRIKLLNNSDERLQNSRAKDRKDVWSSIQGQWPKKTLKELFSDSDTEAAASPPHPAPEEGVAEESLQTVAEEESCSPSVELEKPPPVNVDSKPIEEKTVEVNDRKAEFPSSGSNSVLNTPPTTPESPSSVTVTEGSRQQSSVTVSEPLAPNQEEVRSIKSETDSTIEVDSVAGELQDLQSEGNSSPAGFDASVSSSSSNQPEPEHPEKACTGQKRVKDAQGGGSSSKKQKRSHKATVVNNKKKGKGTNSSDSEELSAGESITKSQPVKSVSTGMKSHSTKSPARTQSPGKCGKNGDKDPDLKEPSNRLPKVYKWSFQMSDLENMTSAERITILQEKLQEIRKHYLSLKSEVASIDRRRKRLKKKERESAATSSSSSSPSSSSITAAVMLTLAEPSMSSASQNGMSVECR
